In experiment [1] the test system is community-acquired methicillin-resistant Staphylococcus aureus CA-MRSA (USA300-0114). Briefly: Minimum inhibitory concentration (MIC). The class given is cell-based. The conditions noted are these: read-out: MIC v MRSA. As for the experimental part:
(§1) As used herein, the term “minimum inhibitory concentration (MIC)” refers to the lowest concentration of an antimicrobial agent that will inhibit the visible growth of a microorganism after overnight incubation. MIC values against bacteria, for example, the Gram-positive Staphylococcus aureus and Enterococcus faecalis and the Gram-negative Escherichia coli and Pseudomonas aeruginosa were determined by standard methods. See also P. A. Wayne, Methods for Dilution Antimicrobial Tests for Bacteria that Grow Aerobically; Approved Standard, Ninth Edition, 2012, CLSI Document M07-A9, Vol. 32 No. 2, which is incorporated by reference herein in its entirety.
Decyl or benzyl substituents led to decreased toxicity.
(§2) Compounds were serially diluted two-fold from a 10% DMSO/aqueous stock solution to yield twelve test concentrations. […] Plates were incubated statically at 37° C. for 72 hours upon which time wells were evaluated visually for bacterial growth. The MIC was determined as the lowest concentration of compound resulting in no bacterial growth visible to the naked eye, based on the majority of three independent experiments. […]
(§3) Compounds were serially diluted two-fold from a 10% DMSO/aqueous stock solution to yield twelve test concentrations. […] Plates were incubated statically at 37° C. for 72 hours upon which time wells were evaluated visually for bacterial growth. […]

Experiment [2] deals with Staphylococcus aureus (SA; MSSA SH1000). The experiment in a line: Minimum inhibitory concentration (MIC). It is filed as cell-based. The conditions noted are these: read-out: MIC v SA. As for the experimental part: as §1, §2, §3

For the compound `CCCCCCCCCCCCCCCC[n+]1ccccc1` [Cetyl pyridinium chloride, reference compound], the figures for the minimum inhibitory concentration (MIC) in experiment [1] and in experiment [2] were 16 µM and 0.5 µM, respectively.

For the origin of these results see patent publication US20180111893A1, “POLYCATIONIC AMPHIPHILES AND POLYMERS THEREOF AS ANTIMICROBIAL AGENTS AND METHODS USING SAME” (Temple University-Of The Commonwealth System of Higher …, priority 2015, published 2018).
